The test is described as follows: qHTS Assay for Lipid Storage Modulators in Drosophila S3 Cells.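 For cell number change: cells counted by Cell Tracker Red CMTPX staining in the red channel.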 To be noted: BODIPY lipid droplet fluorescence, 18-24 h; for cell number change: measured here: cell count max response, cells fed with added oleic acid. In outline:
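Drosophila S3 cells loaded with oleic acid (400 uM, as added) and compounds at several concentrations; lipid droplets imaged by 488-nm laser-scanning cytometry, 500–530 nm intensity and object ratio to cell channel. Percent activity normalized to 20 uM Triacsin C.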
(In general: Quantitative high-throughput screening tests each substance at several concentrations.)

Where [1] appears, read: measured here: cell number channel AC50, cells fed with added oleic acid.
Where [2] appears, read: measured here: lipid fluorescence (Fed channel) AC50, cells fed with added oleic acid.

The other results are listed elsewhere or left out. These are further read-outs of the screen, such as a control signal, another cell line or another target. No call is given for them. Most of these compounds were active or inconclusive in the main read-out, so they are no random draw. Words in brackets tell the shape of the fitted curve; partial curves, single points and poor fits give uncertain potencies.

17 compounds from PubChem BioAssay AID2685 (National Center for Advancing Translational Sciences (NCATS), 2010) can be followed below.

For the compound `CCCCCC(=O)Nc1cc(S(=O)(=O)N2CCOCC2)ccc1N1CCCC1`, the cell number change was -7.73%.
`CC(=O)c1ccc2c(c1)OCCOCCOCCO2`: the cell number change is -15.4%.
As for `CC(Sc1nnc(-c2cccs2)n1Cc1ccccc1)C(=O)NCc1ccc2c(c1)OCO2` (stereo not given), the cell number change came to 153%. Besides, the AC50 under setting [1] is 29.1 µM [rising, single point].
On to `O=c1c2nnn(Cc3ccccc3)c2ncn1C/C=C/c1ccccc1`, for which, under setting [1], the concentration at half-maximal activity (AC50) is 0.291 µM [rising, single point].
The same measure, in the same setting: the figure for `O=C(CCC(=O)N1CCN(S(=O)(=O)c2ccc(Cl)cc2)CC1)NCc1ccccc1` is 0.259 µM [falling, full curve, poor fit].
For the compound `COc1cc2nc(N3CCN(C(=O)C4COc5ccccc5O4)CC3)nc(N)c2cc1OC` (stereo not given), the cell number change was -35.2%. The concentration at half-maximal activity (AC50) under setting [1] is 18.4 µM [falling, single point]. In addition, the AC50 under setting [2] was 0.231 µM [rising, full curve].
In the case of `C/C(Cl)=C\Cn1c(O)c(N=O)c2ccccc21`, the cell number change is -34.5%. Under setting [1], the half-maximal activity concentration (AC50) was 7.31 µM [falling, partial curve]. In addition, the AC50 under setting [2] is 0.164 µM [falling, full curve].
For the compound `CC(C)n1c(NCc2cc(Cl)ccc2O)nc2ccccc21`, the cell number change is -51.5%. Also, under setting [1], the half-maximal activity concentration (AC50) is 23.1 µM [falling, single point]. In addition, the AC50 under setting [2] is 29.1 µM [falling, single point].
Turning to `COc1cc(C=O)ccc1OCCOCCOc1ccc(Cl)cc1`, the cell number change came out at 89.5%. Also, the AC50 under setting [1] was 5.8 µM [rising, partial curve]. Further, under setting [2], the concentration at half-maximal activity (AC50) was 16.4 µM [rising, partial curve].
Regarding `Cc1ccc(C)c(NC(=S)N(CCN(C)C)C(C)c2ccccn2)c1` (stereo not given), the cell number change was -19.3%. For the same compound, the AC50 under setting [2] is 6.51 µM [falling, partial curve, poor fit].
Regarding `CN(Cc1ccccc1)S(=O)(=O)CCNC(=O)c1ccc2c(c1)OCO2`, the cell number change was -8.87%.
For the compound `CCC(=O)NC(c1cccs1)c1cc([N+](=O)[O-])c2cccnc2c1OC` (stereo not given), the cell number change was 41.3%. Also, the AC50 under setting [1] is 23.1 µM [rising, single point].
Take `COCCC(=O)N1CCC(Oc2ccc(C(=O)N3CCCC(COC)C3)cc2)CC1` (stereo not given): the cell number change amounted to 5.25%. Besides, the AC50 under setting [2] was 18.4 µM [rising, partial curve, poor fit].
Consider `COc1cc(NC(=O)C2CC(c3cccc(OC)c3OC)=NO2)cc(OC)c1OC` (stereo not given), for which the AC50 under setting [1] was 5.17 µM [rising, single point].
On to `Nc1cc(-c2ccc(Br)cc2)nn1S(=O)(=O)c1cccc2nsnc12`, for which the AC50 under setting [2] was 0.731 µM [falling, single point].
On the same count and under the same terms, the figure for `COc1ccc2cc(CCNC(=O)C(C)C)c(=O)[nH]c2c1` is 0.0731 µM [rising, single point].
As for `COc1ccc(C2=NS(=O)(=O)N(C)C(C(=O)NC(C)c3ccccc3)=C2)cc1OC` (stereo not given), the cell number change is -19.3%. Moreover, under setting [2], the AC50 is 25.9 µM [falling, partial curve, poor fit].

By AC50 is commonly meant the midpoint of the concentration-response curve, whichever way the signal moves. Low values mean activity at low concentration, high ones activity only at high concentration.
